Patent US5714361A, “Phosphatase/phosphodiesterase enzyme inhibitors and methods” (priority 1994, dated 1998)
For at least one compound, name, drawing or mass did not settle the structure.

By UniProt entry, the sequences of proteins in these tests, tags left out. Residues count along the entry.
UniProt P15309, 33-386: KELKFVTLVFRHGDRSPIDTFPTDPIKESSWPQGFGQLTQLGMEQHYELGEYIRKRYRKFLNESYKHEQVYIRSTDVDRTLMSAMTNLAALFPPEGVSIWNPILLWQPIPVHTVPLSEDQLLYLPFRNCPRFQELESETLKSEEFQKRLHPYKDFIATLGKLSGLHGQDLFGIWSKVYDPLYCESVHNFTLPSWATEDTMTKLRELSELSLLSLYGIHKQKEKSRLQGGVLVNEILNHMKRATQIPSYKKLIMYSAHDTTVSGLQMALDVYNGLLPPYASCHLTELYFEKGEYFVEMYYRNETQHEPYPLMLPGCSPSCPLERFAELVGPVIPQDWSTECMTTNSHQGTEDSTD

How the values were obtained:
[1] = target: human prostatic acid phosphatase (PAP) (Homo sapiens, UniProt P15309); assay: Time-dependent inactivation of prostatic acid phosphatase (residual activity with PNPP); type: biochemical
Experimental: Reactions were performed by incubating 1 or 9 with PAP (2 μg/mL) in 100 mM sodium acetate buffer pH 5.0 at 25° C. Residual PAP activity was determined by removing 20 μL aliquots and adding them to a 1 mL solution of 3.0 mM p-nitrophenyl phosphate (PNPP) in 100 mM sodium acetate buffer pH 5.0. After 5 minutes in PNPP, the reactions were quenched with 100 μL of 1.25N NaOH. p-Nitrophenoxide concentration was quantitated from the absorbance at 405 nm, using an extinction coefficient of 18,000 M-1 cm-1. (A) Residual PAP activity after incubation with varying concentrations of 1; 5.0 mM (filled circles), 500 μM (open squares), 125 μM (open triangles), 70 μM (filled diamonds), and 50 μM (open circles). (B) Residual PAP activity after treatment with 6.6 mM FMPP (open triangles), or 23 mM of the phosphonate (15 X Ki) (closed circles).
In this experimental, human prostatic acid phosphatase (PAP) was used as a model enzyme. […] This phosphatase is an important diagnostic marker for prostate cancer, and there is evidence that it may be involved in the regulation of androgen receptor activity in prostate cells.

alkaline phosphatase = assay: Inactivation of alkaline phosphatase; type: biochemical

Compound: O=P(O)(O)Oc1ccc(CF)cc1 [FMPP, 4-(fluoromethyl)phenyl phosphate]
- inactivation in the presence of sodium azide ([1]; 50 mM sodium azide): did not stop the inactivation
- t1/2 for inactivation ([1]; at saturating levels of FMPP): 35 s
- rate of inactivation in the presence of nucleophilic scavenging agents ([1]; dithiothreitol 5 mM, sodium azide 1 mM or cysteine 20 mM): not slowed
- time-dependent inactivation of PAP ([1]; incubation with PAP (2 μg/mL), 100 mM sodium acetate buffer pH 5.0, 25° C.): rapid, time-dependent inactivation of the enzyme
- inactivation of alkaline phosphatase (alkaline phosphatase): does not, for example, inactivate alkaline phosphatase
- substrate for alkaline phosphatase (alkaline phosphatase): is a substrate for the enzyme
